Source: doi:10.1371/journal.pone.0140310, primary screening data, rounded.

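Human melanoma cell lines in 1,536-well plates were treated with a pair of drugs for 72 h, then fixed, stained and imaged. Values are the share of nuclei positive for cleaved PARP as a percentage of the same share in the DMSO control: 100 is the control level, higher means more apoptosis. Every drug was used at one fixed concentration, the higher of two screened. The file gives one value for each pair and line, without errors, so small differences may be noise. Basal and induced levels differ widely between cell lines.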
Only some of the drugs and lines screened are listed, without regard to their results.

Every entry is a combination with bexarotene at 10 µM: C=C(c1ccc(C(=O)O)cc1)c1cc2c(cc1C)C(C)(C)CCC2(C)C

Second drug	RVH-421
CCN(CC)CCNC(=O)c1c(C)[nH]c(/C=C2\C(=O)Nc3ccc(F)cc32)c1C at 2 µM	71.3
CC(C)CCN1c2nc(Nc3cc(F)c(O)c(F)c3)ncc2N(C)C(=O)C1C (stereo not shown) at 1 µM	180
COC(=O)c1sccc1S(=O)(=O)Nc1ccc(Nc2ccccc2)cc1OC at 5 µM	68.7
c1cc(-c2cnn3cc(-c4ccc(OCCN5CCCCC5)cc4)cnc23)ccn1 at 2 µM	87.9
Nc1nc(F)nc2c1ncn2[C@@H]1O[C@H](CO)[C@@H](O)[C@@H]1O at 1 µM	27.4
Cn1nnc2c(C(N)=O)ncn2c1=O at 10 µM	185
O=C(Nc1cccc(Cl)c1)Nc1ncc(CCNc2ncnc3ccsc23)s1 at 0.004 µM	59.1
CN(C)S(=O)(=O)c1ccc2c(c1)/C(=C/c1cc3c([nH]1)CCCC3)C(=O)N2 at 2 µM	50.1
C[C@]1(O)C[C@@H](c2nc(-c3ccc4ccc(-c5ccccc5)nc4c3)c3c(N)nccn32)C1 at 2 µM	126
Cn1c(Nc2ccc(C(F)(F)F)cc2)nc2cc(Oc3ccnc(-c4ncc(C(F)(F)F)[nH]4)c3)ccc21 at 0.4 µM	113
COc1cc([C@@H]2c3cc4c(cc3[C@@H](O[C@@H]3O[C@@H]5CO[C@@H](C)O[C@H]5[C@H](O)[C@H]3O)[C@H]3COC(=O)[C@H]23)OCO4)cc(OC)c1O at 0.1 µM	113
Cn1cc(C2=C(c3cn(C4CCN(Cc5ccccn5)CC4)c4ccccc34)C(=O)NC2=O)c2ccccc21 at 4 µM	200
Cc1cn(-c2cc(NC(=O)c3ccc(C)c(Nc4nccc(-c5cccnc5)n4)c3)cc(C(F)(F)F)c2)cn1 at 1 µM	154
CS(=O)(=O)c1ccc(C(=O)Nc2ccc(Cl)c(-c3ccccn3)c2)c(Cl)c1 at 5 µM	200
O=C(Nc1ccccc1)c1cc([N+](=O)[O-])ccc1Cl at 10 µM	270
NCC(=O)Nc1ccc(-n2nc(C(F)(F)F)cc2-c2ccc3c(ccc4ccccc43)c2)cc1 at 5 µM	71.2
OCCn1cc(-c2cnc3nnn(Cc4ccc5ncccc5c4)c3n2)cn1 at 5 µM	88.6
CN1CCN(c2ccc3nc(-c4c(N)c5c(F)cccc5[nH]c4=O)[nH]c3c2)CC1 at 0.5 µM	154

Repeated from the top, 2 entries:

| Second drug | RVH-421 |
|---|---|
| CCN(CC)CCNC(=O)c1c(C)[nH]c(/C=C2\C(=O)Nc3ccc(F)cc32)c1C at 2 µM | 71.3 |
| CC(C)CCN1c2nc(Nc3cc(F)c(O)c(F)c3)ncc2N(C)C(=O)C1C (stereo not shown) at 1 µM | 180 |